Measurements reported in paper PMC11423568.
No constants are given. Whether binding was seen depends on the method and setting. Some entries that bind do so weakly or less than the wild type.

Chains of the proteins cited; added tags and fusions are not shown.
UniProt O30612: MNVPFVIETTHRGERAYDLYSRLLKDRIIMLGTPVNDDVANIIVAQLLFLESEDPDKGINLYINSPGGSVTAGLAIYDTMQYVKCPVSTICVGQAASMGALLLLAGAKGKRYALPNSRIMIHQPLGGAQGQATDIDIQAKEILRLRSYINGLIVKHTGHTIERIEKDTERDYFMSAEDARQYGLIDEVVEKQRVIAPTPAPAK

Biological target: Myxococcus xanthus DK1622 ClpP2 (MXAN_6438), no tag (Myxococcus xanthus DK1622) (UniProt O30612)
Experiment: cross-linking; 20 µM ClpP1 or ClpP2 in 20 mM HEPES, 100 mM NaCl, 1 mM EDTA, pH 7.5, 25°C; glutaraldehyde (0.1% in methods, 1% in legend) 10 min, quenched with 200 mM Tris-HCl pH 7.5; SDS-PAGE; both purified

binding: binds weakly
Substance: Myxococcus xanthus DK1622 ClpP2 (MXAN_6438), no tag (from UniProt O30612 1-203) (enzyme)
